± gives the standard deviation. This is a selection; strong and weak results do not stand in their true shares. The uncertainty is large for many entries.
These sequences were tested on MILI (PIWIL2) piRISC loaded with Kctd7 piRNA (26 nt) (assay: pre-steady-state target cleavage rate (min^-1); MIWI and MILI are mouse PIWI proteins and EfPiwi is from a freshwater sponge; tags in brackets are library labels; higher = faster piRNA-guided slicing of the target). Conditions: guide: Kctd7 piRNA 5'p-UGUUAAUCUCUCAGAGAAGGUGACAG; auxiliary factor: 500 nM mouse GTSF1.
Summary of the method: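 A transcribed, DNA-blocked target RNA library […] was incubated at 33 °C for 0–8 or 0–960 min with 1 nM active affinity-purified piRISC carrying one synthetic guide, in HEPES–potassium acetate buffer with or without 500 nM GTSF1 partner protein. Uncleaved targets were then sequenced and normalised to depth and to weakly complementary targets. Data from three trials were pooled, with k3 capped at 0.0001 min^-1, and a burst-and-steady-state fit yielded the pre-steady-state cleavage rate.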
With UAGUGACAGUGCUAGACUGAGAGAUUAACA the “pre-steady-state target cleavage rate” value was 0.000382 ± 0.015.
With UAGUGACAGACCUUCUCUGAGAGAUAAAGA the “pre-steady-state target cleavage rate” value was 0.000578 ± 0.02.
UAGUCUGUCACCAAGUCUGAGAGAUUAAGA was tested, and the “pre-steady-state target cleavage rate” value was 0.00249 ± 0.0048.
UAGUGUGUCACCUUCUCAGAGACAUUAACA was tested, and the “pre-steady-state target cleavage rate” value was 0.117 ± 0.025.
For UAGUGACAGUGGUUCUCUCAGUGAUUAACA, the “pre-steady-state target cleavage rate” value was 0.000478 ± 0.0089.
For UAGUGACAGUCCUUCUCAGAGAGAUUAAGA, the “pre-steady-state target cleavage rate” value was 0.00208 ± 0.0052.
In the case of UAGUGACUCAGGAUCUCUGAGAGAUUAACA, the “pre-steady-state target cleavage rate” value is reported as 0.00237 ± 0.0028.
In the case of UAGUGAGUCACCUUCUCUGACAGAAUAACA, the “pre-steady-state target cleavage rate” value is reported as 0.00164 ± 0.0077.
UAGUGACAGUCCUUCUCUGAGAGAUUUUCA was tested, and the “pre-steady-state target cleavage rate” value was 0.00152 ± 0.006.
With UAGUGACAGUCCUUGAGUGAGAGAUUAACA the “pre-steady-state target cleavage rate” value was 0.00142 ± 0.0051.
For UAGUGAGUCACCUUCUCUCACAGAUUAACA, the “pre-steady-state target cleavage rate” value was 0.00278 ± 0.0052.
For UAGUGACAGUGGAACUCUGAGUGAUUAUCA, the “pre-steady-state target cleavage rate” value was 0.000692 ± 0.024.
With UAGUGACAGACGAACUCUGAGAGAUUAACA the “pre-steady-state target cleavage rate” value was 0.000424 ± 0.01.
For UAGUGUGUCACCUACUCUGAGAGAUUUACA, the “pre-steady-state target cleavage rate” value was 0.25 ± 0.052.
UAGUGACUCACCUUCUCUGAGACUUUAUGA was tested, and the “pre-steady-state target cleavage rate” value was 0.00028 ± 0.021.
In the case of UAGUGACAGUGGAAGUCUGAGCAGAUUAACA, the “pre-steady-state target cleavage rate” value is reported as 0.000208 ± 0.02.
With UAGUGACUCACCUUCUCUGAGAGAUUAUGA the “pre-steady-state target cleavage rate” value was 0.0729 ± 0.012.
In the case of UAGUGUGUCACCUUCUGUGAGAGUUUAACA, the “pre-steady-state target cleavage rate” value is reported as 0.0964 ± 0.027.
“UAGUGACAGUGCUUCUCUGACUCUAAUUGA [g11:g19:cont:t1A]” was tested, and the “pre-steady-state target cleavage rate” value was 0.000143 ± 0.055.
In the case of UAGUGAGUCAGCUUCUCUGAGAGAUUUUGA, the “pre-steady-state target cleavage rate” value is reported as 0.00248 ± 0.0043.
For UAGUGACAGUCCUUCUCUCAGAGAUAAACA, the “pre-steady-state target cleavage rate” value was 0.0029 ± 0.0041.
With UAGUGACUCACCUUCUCUGAGAGAUAUAGA the “pre-steady-state target cleavage rate” value was 0.00403 ± 0.0045.
In the case of UAGUGACAGUGGAAGUCUGAGAGAUUAAUCA, the “pre-steady-state target cleavage rate” value is reported as 0.000188 ± 0.017.
With UAGUGACAGUGGUUGUCUGAGAGAUUUACA the “pre-steady-state target cleavage rate” value was 0.000967 ± 0.0066.
In the case of UAGUGACACACCUUCUCUGAGUCUUUAACA, the “pre-steady-state target cleavage rate” value is reported as 0.000132 ± 0.02.
In the case of UAGUGACAGUGGAAGUGUGAGACAUUAACA, the “pre-steady-state target cleavage rate” value is reported as 0.000177 ± 0.029.
UAGUGACACACGAUCUCUGAGAGAUUAUGA was tested, and the “pre-steady-state target cleavage rate” value was 0.00189 ± 0.005.
For UAGUGACAGUGGAAGUCUGAGAGAUUAACCA, the “pre-steady-state target cleavage rate” value was 0.00186 ± 0.0024.
In the case of UAGUGACAGACCUUCUCUGAGAGUUAACA, the “pre-steady-state target cleavage rate” value is reported as 0.00111 ± 0.01.
With UAGUGAGUCACCUUGUCUGAGUGAUUAACA the “pre-steady-state target cleavage rate” value was 0.00179 ± 0.0055.
In the case of UAGUGACUCUCCUUCUCUGAGUGAUUAACA, the “pre-steady-state target cleavage rate” value is reported as 0.000488 ± 0.011.
With UAGUGACAGUGGAAGAGAGAGAGAUUACCA the “pre-steady-state target cleavage rate” value was 0.000168 ± 0.034.
In the case of UAGUGUCUCACCUUCUCUGAGAGAUUUACA, the “pre-steady-state target cleavage rate” value is reported as 0.196 ± 0.043.
UAGUGAGUCACCUUCUCUGAGAGAUUUUCA was tested, and the “pre-steady-state target cleavage rate” value was 0.145 ± 0.044.
In the case of UAGUCUGUCACCUUCUCUGAGAGAUGUAACA, the “pre-steady-state target cleavage rate” value is reported as 0.211 ± 0.03.
For “UAGUGACAGUGGAAGAGACUCUCAUUAACC [g2:g7:cont:t1C]”, the “pre-steady-state target cleavage rate” value was 0.000114 ± 0.019.
For UAGUGACAGUGGAACUCUGAGAGUAUAACA, the “pre-steady-state target cleavage rate” value was 0.000132 ± 0.053.
UAGUGACAGUGGUUCUCUGAGUGAUUAACA was tested, and the “pre-steady-state target cleavage rate” value was 0.000311 ± 0.013.
With UAGUGACAGACCUUCUCUGAGCGAUUAACA the “pre-steady-state target cleavage rate” value was 0.00395 ± 0.004.
For UAGUGACAGACCUUCUCUGAGACAUUAUGA, the “pre-steady-state target cleavage rate” value was 0.000143 ± 0.035.
UAGUGACAGUGCUUCUGUGAGAGAUUAAGA was tested, and the “pre-steady-state target cleavage rate” value was 0.00233 ± 0.005.
For UAGUGACAGUGCUUCUCUGUGUGAUUAACA, the “pre-steady-state target cleavage rate” value was 0.00231 ± 0.0032.
UAGUGACACACCUACUCUGAGAGAUAUUGA was tested, and the “pre-steady-state target cleavage rate” value was 0.000323 ± 0.018.
UAGUGACAGUGCUUCUCUGUGAGAAUAACA was tested, and the “pre-steady-state target cleavage rate” value was 0.00179 ± 0.0036.
UAGUCUGUCACCUUCUCUGAGAGUUUAACA was tested, and the “pre-steady-state target cleavage rate” value was 0.238 ± 0.04.
With UAGUGACAGUGCAUCUCUGAGAGAUAAACA the “pre-steady-state target cleavage rate” value was 0.000239 ± 0.0091.
UAGUGACAGACCUUCUCUGAGAGGUUAACA was tested, and the “pre-steady-state target cleavage rate” value was 0.221 ± 0.058.
With UAGUGACUCACCUUCUGACAGAGAUUAACA the “pre-steady-state target cleavage rate” value was 0.00353 ± 0.0037.
For UAGUGACAGUGGUUCUCCGAGAGAUUAACA, the “pre-steady-state target cleavage rate” value was 0.00186 ± 0.0056.
UAGUGACAGUGGUUCUCUGUCUGAUUAACA was tested, and the “pre-steady-state target cleavage rate” value was 0.000112 ± 0.025.
UAGUGACAGACCUUCUCUGAGAGUUUUUGA was tested, and the “pre-steady-state target cleavage rate” value was 0.00118 ± 0.012.
In the case of UAGUGACAGUGGAUCUCUGAGAGGUUAACA, the “pre-steady-state target cleavage rate” value is reported as 0.00057 ± 0.0092.
For UAGUGACAGUGGAAGUCUGAGAGAUGUAACA, the “pre-steady-state target cleavage rate” value was 0.000278 ± 0.015.
For UAGUGACACACCUUCUCUCUCAGAUUAACA, the “pre-steady-state target cleavage rate” value was 0.00233 ± 0.0047.
UAGUGACAGUGGAAGUCUGAGAGAUUAUACA was tested, and the “pre-steady-state target cleavage rate” value was 0.000302 ± 0.013.
With UAGUGACACACCUUCUCUGAGUCAUAUUGA the “pre-steady-state target cleavage rate” value was 0.000291 ± 0.021.
With UAGUCUGUCACCUUCUCAGAGAGAAUAACA the “pre-steady-state target cleavage rate” value was 0.0517 ± 0.017.
With UAGUGUGUCACCUUCUCUGAGUCAUUAACA the “pre-steady-state target cleavage rate” value was 0.00291 ± 0.0044.
For UAGUGACAGUCCUUCUCUGAGUGAUUAACA, the “pre-steady-state target cleavage rate” value was 0.00123 ± 0.0045.
In the case of UAGUGACAGUCGAACUCUGAGAGAUUAACA, the “pre-steady-state target cleavage rate” value is reported as 0.000419 ± 0.013.
In the case of UAGUGACUCACCUUCUCUGACUCAUUUUGA, the “pre-steady-state target cleavage rate” value is reported as 0.00014 ± 0.028.
For UAGUGACAGUGGAAGUCUGAGACAUAAACA, the “pre-steady-state target cleavage rate” value was 0.000215 ± 0.031.
With UAGUGACAGUGGAUCUUCUGAGAGAUUAACA the “pre-steady-state target cleavage rate” value was 0.000495 ± 0.0065.
With UAGUGUGUGUGCUUCUCUGAGAGAUUUUGA the “pre-steady-state target cleavage rate” value was 0.000656 ± 0.012.
With UAGUGACAGUGGAUCUCUGAGAGUAUUAACA the “pre-steady-state target cleavage rate” value was 0.000184 ± 0.019.
UAGUGACAGUGGAACUCUGAGACAUUAACA was tested, and the “pre-steady-state target cleavage rate” value was 0.000452 ± 0.02.
For “UAGUGACAGUCCUUCUGACUCUCUAAUUGA [g15:g20:cont:t1A]”, the “pre-steady-state target cleavage rate” value was 0.000448 ± 0.015.
In the case of UAGUGACAGUCCUUCUCUGACUGAUUAACA, the “pre-steady-state target cleavage rate” value is reported as 0.000448 ± 0.0077.
In the case of UAGUGACACACCUUCAGUGAGAGAUUAACA, the “pre-steady-state target cleavage rate” value is reported as 0.0881 ± 0.016.
In the case of UAGUGACAGUGGAACUCUGAGAGAUUAAUA, the “pre-steady-state target cleavage rate” value is reported as 0.000654 ± 0.023.
With UAGUGACAGUGGAAGUCUGAGAGGAUUAACA the “pre-steady-state target cleavage rate” value was 0.000167 ± 0.018.

Reference: the supplement of paper PMC10338343
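Further: 1 nM active piRISC with 0.1 nM target library at 33 °C single turnover.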
